No constants are given. Whether binding was seen depends on the method and setting. Binding seen in cells or lysates may run through a third protein. Here binding means that the protein was enriched with, or labelled near, the bait; the list need not be complete.
Key:
[1] = target: Procaspase-8 (human (endogenous in SKW 6.4)) (UniProt Q14790); experiment: affinity purification with mass spectrometry; anti-caspase-8 or anti-CD95 (anti-APO-1) antibodies covalently coupled to sepharose beads (Pierce Co-Immunoprecipitation kit); total lysates of SKW 6.4 cells treated for 15 min with 166 ng/mL CD95L or left untreated; nanoLC-tandem mass spectrometry
[2] = target: CD95/Fas (human (endogenous in SKW 6.4)) (UniProt P25445); experiment: as above

The chains behind the UniProt entries cited, without tags or fusion partners. Residues count along the entry.
UniProt Q14790: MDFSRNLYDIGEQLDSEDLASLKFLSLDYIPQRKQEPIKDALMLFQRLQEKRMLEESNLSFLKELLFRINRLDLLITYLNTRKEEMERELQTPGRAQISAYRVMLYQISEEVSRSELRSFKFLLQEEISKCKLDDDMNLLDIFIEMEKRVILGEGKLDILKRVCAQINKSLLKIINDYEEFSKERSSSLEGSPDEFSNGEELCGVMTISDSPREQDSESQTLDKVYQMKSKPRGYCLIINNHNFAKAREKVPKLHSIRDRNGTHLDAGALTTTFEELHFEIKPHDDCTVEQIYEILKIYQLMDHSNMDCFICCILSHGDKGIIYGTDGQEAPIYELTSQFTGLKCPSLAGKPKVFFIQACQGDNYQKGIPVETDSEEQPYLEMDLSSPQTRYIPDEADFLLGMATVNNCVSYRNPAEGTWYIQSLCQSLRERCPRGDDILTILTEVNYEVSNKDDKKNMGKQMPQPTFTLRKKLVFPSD
UniProt P25445, residues 26-335: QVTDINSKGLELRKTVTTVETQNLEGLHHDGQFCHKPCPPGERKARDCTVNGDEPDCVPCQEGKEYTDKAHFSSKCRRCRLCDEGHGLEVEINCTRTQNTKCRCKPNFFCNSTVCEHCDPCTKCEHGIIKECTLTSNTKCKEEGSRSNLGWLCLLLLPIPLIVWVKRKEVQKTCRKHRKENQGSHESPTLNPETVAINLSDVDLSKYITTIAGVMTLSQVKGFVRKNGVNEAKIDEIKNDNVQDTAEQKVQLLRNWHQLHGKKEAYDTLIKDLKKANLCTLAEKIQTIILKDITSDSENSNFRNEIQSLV
UniProt Q9BQA1: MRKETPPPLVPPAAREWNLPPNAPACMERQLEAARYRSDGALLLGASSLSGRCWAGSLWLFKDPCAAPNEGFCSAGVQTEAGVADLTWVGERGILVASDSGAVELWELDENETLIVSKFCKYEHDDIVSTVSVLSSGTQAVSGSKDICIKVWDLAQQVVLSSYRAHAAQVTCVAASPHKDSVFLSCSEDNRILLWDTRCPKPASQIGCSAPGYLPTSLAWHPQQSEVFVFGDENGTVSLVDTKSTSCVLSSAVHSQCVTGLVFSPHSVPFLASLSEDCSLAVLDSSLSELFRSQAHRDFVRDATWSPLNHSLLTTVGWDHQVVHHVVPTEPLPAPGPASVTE
UniProt O14744: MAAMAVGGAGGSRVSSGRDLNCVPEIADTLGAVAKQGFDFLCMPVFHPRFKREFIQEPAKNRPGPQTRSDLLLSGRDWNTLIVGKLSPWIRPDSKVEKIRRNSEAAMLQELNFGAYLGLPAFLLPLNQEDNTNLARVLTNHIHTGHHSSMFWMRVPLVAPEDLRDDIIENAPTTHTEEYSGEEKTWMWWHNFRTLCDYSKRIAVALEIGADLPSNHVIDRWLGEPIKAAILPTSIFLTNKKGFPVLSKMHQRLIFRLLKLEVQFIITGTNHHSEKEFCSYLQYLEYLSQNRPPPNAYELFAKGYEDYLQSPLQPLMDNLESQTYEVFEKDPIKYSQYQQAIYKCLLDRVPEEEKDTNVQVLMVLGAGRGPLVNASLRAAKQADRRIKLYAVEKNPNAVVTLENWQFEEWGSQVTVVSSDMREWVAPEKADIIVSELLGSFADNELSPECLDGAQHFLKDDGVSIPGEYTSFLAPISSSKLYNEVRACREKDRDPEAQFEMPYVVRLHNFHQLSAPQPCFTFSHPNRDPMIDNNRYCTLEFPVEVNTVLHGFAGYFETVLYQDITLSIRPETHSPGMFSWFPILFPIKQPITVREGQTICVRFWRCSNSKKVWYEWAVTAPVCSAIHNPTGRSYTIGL

## MEP50/WD45/WDR77 (WD repeat-containing protein) (from UniProt Q9BQA1 1-342)
[1]
  binding: binds
[2]
  binding: binds

## PRMT5 (from UniProt O14744 1-637) (enzyme)
[1]
  binding: binds
[2]
  binding: binds
